For orientation: AC50 means the concentration giving half of the maximal activity seen.

Some of the results follow. Shown are side measurements of this screen, not its main read-out; they come without a call. Most of these compounds were active or inconclusive in the main read-out, so they are no random draw. The note in brackets gives the kind of curve behind each potency; many fits are weak.

This note sets out measurements from PubChem BioAssay AID493014 (National Center for Advancing Translational Sciences (NCATS), 2011).

A short description of the test: qHTS Assay to Find Inhibitors of Chronic Active B-Cell Receptor Signaling. To be noted: ABC-DLBCL IkBa-CBG/CBR reporter, luminescence ratio (green luciferase fused to IkBa over red control in TMD8 lymphoma cells), 4 h. The method in brief: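 TMD8 human ABC-DLBCL cells with doxycycline-inducible IκBα–green luciferase fusion and unfused red luciferase, in 0.5% FBS medium; compounds up to 46 uM, 4 h at 37C. Green/red luminescence ratio, filter-overlap corrected, fitted to concentration-response curves.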
A general note: qHTS replaces the single test concentration by a dilution series.

Where [1] appears, read: measured here: CBR red luminescence, cell number.
Where [2] appears, read: measured here: IkBa-CBG green luminescence.

Turning to `CCOC(=O)C/C(C)=N/NC(=O)c1cccs1`, the AC50 under setting [1] is 25.1 µM [falling, single point].

Regarding `Cc1ccc(NC(=O)C(=Cc2ccc(C(=O)O)cc2)C(=O)Nc2ccc(C)cc2C)c(C)c1`, the AC50 under setting [1] was 1.12 µM [falling, full curve, poor fit].

`Cc1ccc(NC(=O)CNCc2cccs2)cc1Br`: under setting [1], the AC50 was 1.78 µM [rising, partial curve, poor fit]. On to `COc1cc2c(cc1OC)CN(C(=O)CCOc1ccccc1)CC2`, for which, under setting [1], the AC50 is 35.5 µM [rising, single point]. Still for that read-out and setting: with `Cc1nc2ccc(NC(=O)c3sccc3C)cc2s1` the figure was 7.94 µM [falling, partial curve]; with `CCOC(=O)N1CCN(c2cc(NCCC(=O)O)c3c4c(onc24)-c2ccccc2C3=O)CC1`, 20.6 µM [falling, single point]; with `O=C(c1cccc(F)c1)n1nnc2ccccc21`, 0.731 µM [rising, full curve, poor fit]. `CC(C)=C1C2CCC1C(C(=O)NCCc1ccccc1)C2C(=O)O` (stereo unspecified): the AC50 under setting [1] was 18.4 µM [rising, single point].

As to `O=C(CCN1C(=O)/C(=C/C=C/c2ccccc2)SC1=S)Nc1ccccn1`, the AC50 under setting [1] is 0.794 µM [falling, full curve]. The same measure, in the same setting: the figure for `Cc1c(NC(=O)c2c(N)n(-c3ccccc3)c3nc4ccccc4nc23)c(=O)n(-c2ccccc2)n1C` is 4.11 µM [rising, single point]; for `Cc1ccc(CC(=O)Nc2ccc3c(c2)N(C)C(=O)c2ccccc2S3)cc1` it is 22.4 µM [falling, single point]; for `CCCCCc1nnc(NC(=O)OCCC)s1` it is 4.61 µM [rising, full curve, poor fit]. Consider `O=C(c1ccc(Cl)cc1)C(CN1CCCCC1)c1ccccc1` (stereo unspecified), for which, under setting [1], the AC50 is 22.4 µM [falling, single point]. The same measure, in the same setting: with `COC(=O)c1ccc(OCC(=O)c2ccc(C)c(C)c2)cc1` the figure was 0.146 µM [falling, full curve, poor fit].

For the molecule `O=C(Nc1nccs1)c1ccc(-c2ccc(Cl)cc2Cl)o1`, under setting [2], the AC50 was 3.66 µM [rising, full curve, poor fit]. Regarding `Cc1ccsc1C(=O)OCC(=O)Nc1sccc1C(N)=O`, under setting [1], the AC50 is 2.82 µM [falling, full curve]. Same read-out and setting: the figure for `Cc1cc(NC(=O)c2cc(-c3ccncc3)nc3ccccc23)ccc1Br` is 7.31 µM [rising, partial curve, poor fit].

`Cc1cc(O)ccc1N/C=C1\CCCC1=O`: the concentration at half-maximal activity (AC50) under setting [1] was 23.1 µM [falling, single point].

As to `CC(C)(C)c1ccc(C(=O)NCCC(=O)NCc2ccco2)cc1`, the AC50 under setting [1] is 35.5 µM [falling, single point] and the AC50 under setting [2] is 22.4 µM [rising, single point]. As to `CCc1ccccc1OCC(=O)Nc1ccc(F)c(S(=O)(=O)N2CCOCC2)c1`, the AC50 under setting [1] was 1.84 µM [falling, partial curve, poor fit].

`C[C@@H]1CN([C@@H](C)CO)C(=O)c2cc(NS(=O)(=O)c3cccs3)ccc2O[C@H]1CN(C)Cc1ccc(C(F)(F)F)cc1`: the AC50 under setting [1] is 6.51 µM [falling, single point]. On the same count and under the same terms, with `O=C(Cc1csc(N2CCOCC2)n1)N/N=C/c1ccc(F)cc1` the figure was 6.51 µM [falling, single point]; with `COc1ccc(Cc2nnc(NC(=O)Nc3ccccc3F)s2)cc1OC`, 15.8 µM [rising, single point]. As for `Cc1cccc(N2CCN(C(=O)c3ccc(CS(=O)(=O)c4ccccc4C)o3)CC2C)c1` (stereo unspecified), the AC50 by setting is: under setting [1], 35.5 µM [falling, single point]; under setting [2], 3.55 µM [falling, full curve]. On to `Cn1cnc(C(=O)NCc2ccc(CNC(=O)OC(C)(C)C)cc2)c1C(=O)NCc1ccc(CNC(=O)OC(C)(C)C)cc1`, for which, under setting [1], the half-maximal activity concentration (AC50) is 0.731 µM [rising, full curve, poor fit]. On the same count and under the same terms, the figure for `C=CCn1cccc(C(=O)Nc2ccc(SC)cc2)c1=O` is 35.5 µM [falling, single point]; for `COC(=O)c1ccc(-c2ccc(Cl)cc2)nc1C` it is 0.731 µM [rising, full curve]. As to `Cc1ccc(Nc2sc(C(=O)c3ccccc3)c(N)c2C(=O)Nc2ccc(Cl)cc2)cc1`, the AC50 under setting [1] is 28.2 µM [falling, single point].

Take `CC(=C1C(=O)c2ccccc2C1=O)N1CCC(C(N)=O)(N2CCCCC2)CC1`: the AC50 under setting [1] is 3.66 µM [rising, full curve].

`COc1ccc2c(c1OC)C(=O)OC2Nc1nc(-c2ccccc2)cs1` (stereo unspecified): the AC50 was 18.4 µM [falling, partial curve, poor fit] under setting [1] and 9.2 µM [rising, partial curve, poor fit] under setting [2].

As to `COc1ccc(C2CC(C(C)(C)C)=NN2c2ccc(S(N)(=O)=O)cc2)cc1` (stereo unspecified), under setting [1], the AC50 was 16.4 µM [rising, single point]. Still for that read-out and setting: the figure for `O=C1OC(c2ccc(Br)cc2)=N/C1=C\c1ccco1` is 7.08 µM [falling, full curve]; for `Cc1c2c(n3c(nc4ccccc43)c1C#N)N(c1ccccc1)CC2` it is 18.4 µM [falling, partial curve].

As for `CCCCn1c(=O)[nH]c(=O)c2c1nc(-c1ccc([N+](=O)[O-])cc1)n2CC`, the AC50 under setting [1] is 5.62 µM [rising, partial curve, poor fit]. On the same count and under the same terms, with `CCN(CC(=O)Nc1c(F)cccc1F)C(=O)c1ccc(S(=O)(=O)N2CCCCCC2)cc1` the figure was 18.4 µM [rising, single point]; with `C/C(CC(=O)Nc1cccc(C(F)(F)F)c1)=N\NC(=O)c1cnccn1`, 12.6 µM [falling, partial curve, poor fit].

Regarding `O=C1CCCCC1C(=O)c1cn(-c2ccc(Cl)c(Cl)c2)nn1` (stereo unspecified), the AC50 under setting [1] is 0.631 µM [falling, full curve, poor fit]. On to `COc1ccc(C(=O)c2c(C)c3ccccc3n2CC(O)CNC(C)C)cc1` (stereo unspecified), for which, under setting [1], the AC50 was 23.1 µM [falling, single point]. Same read-out and setting: the figure for `O=c1[nH]c(=O)n(-c2ccccc2)c2c1C(C(F)(F)F)(C(F)(F)F)N=C(C1CCCCC1)N2` is 5.8 µM [rising, full curve, poor fit]; for `Clc1ccc(Cn2c(-c3cccnc3Cl)nc3ccccc32)c(Cl)c1` it is 35.5 µM [falling, single point]; for `Cc1nc(N2CCCCC2)c2c(C)c(C(=O)Nc3cccc(C(F)(F)F)c3)sc2n1` it is 3.16 µM [rising, partial curve]. The same measure, in the same setting: the figure for `CCc1ccc(OCCNc2cc(N3CCNC(C)C3)ccc2[N+](=O)[O-])cc1` (stereo unspecified) is 4.11 µM [rising, single point]; for `CN(CC(=O)Nc1ccccc1Br)C(=O)Cn1[nH]c(=O)c2ccccc2c1=O` it is 6.51 µM [rising, single point]. The same measure, in the same setting: the figure for `CSc1cccc(CNC(=O)C2CCC(=O)N(CC3CCCCC3)C2)c1` (stereo unspecified) is 25.1 µM [falling, single point]; for `COc1ccc(NC(=O)N2CCCC2C(=O)Nc2ccc(C)c(Cl)c2)cc1` (stereo unspecified) it is 3.16 µM [rising, partial curve, poor fit]; for `COc1cccc(-c2nc(CS(=O)(=O)CC(=O)N3CCCCC3)c(C)o2)c1` it is 35.5 µM [falling, partial curve, poor fit]. Consider `c1ccc(-c2ccc(C3=Nn4c(nnc4-c4cc(-c5ccccc5)n[nH]4)SC3)cc2)cc1`, for which the AC50 under setting [1] is 6.31 µM [falling, partial curve, poor fit].

In the case of `O=C(Nc1cccc(C(F)(F)F)c1)Oc1ccccc1N1CCOCC1`, under setting [1], the AC50 was 12.6 µM [rising, partial curve]. On the same count and under the same terms, the figure for `COC(=O)c1sccc1NC(=O)Nc1cccc(F)c1` is 11.2 µM [falling, partial curve, poor fit]; for `CC(C)c1ccc(S(=O)(=O)N2CCN(C(=O)CN3C(=O)NC(C)(c4ccccc4)C3=O)CC2)cc1` (stereo unspecified) it is 32.6 µM [falling, partial curve, poor fit]; for `CN1C(=O)/C(=C2\SC(=S)N(NC(=O)c3cccnc3)C2=O)c2ccccc21` it is 17.8 µM [falling, single point]. In the case of `CCOc1ccc(C(=O)Cn2cnc3ccccc3c2=O)cc1`, the AC50 under setting [1] was 0.112 µM [falling, full curve, poor fit].

With `O=C(Nc1cc(Cl)cc(Cl)c1)c1coc(=O)c(Br)c1`, the AC50 under setting [1] is 35.5 µM [falling, single point].

As for `CCCCCCNC(=O)c1c(O)c2cccc3c2n(c1=O)CCC3`, the AC50 under setting [1] was 4.61 µM [rising, single point].

With `COc1ccc(Br)cc1C(=O)Nc1cccc(NC(=O)c2ccco2)c1`, the AC50 under setting [1] was 11.2 µM [falling, partial curve]. `O=C(O)c1sccc1Oc1ccc(NS(=O)(=O)c2ccc(Cl)cc2)cc1`: the AC50 under setting [1] is 1.26 µM [rising, full curve]. Same read-out and setting: with `CNC(=O)NC(=O)C(C)OC(=O)c1oc2ccccc2c1CSc1ccc(Cl)cc1` (stereo unspecified) the figure was 23.1 µM [rising, single point]. Consider `Oc1ccc(/C=N/n2c3ccccc3c3ccccc32)cc1`, for which the AC50 is, setting by setting: under setting [1], 6.51 µM [rising, single point]; under setting [2], 5.17 µM [falling, partial curve, poor fit].

On to `COc1ccc2c(=O)c(Oc3ccc(C(=O)O)cc3)c(C(F)(F)F)oc2c1`, for which the AC50 under setting [1] is 12.6 µM [falling, partial curve]. The same measure, in the same setting: the figure for `COc1ccc(C(=O)NC(=S)N2CCC(C)CC2)cc1Br` is 7.08 µM [rising, partial curve, poor fit]; for `COc1ccc(S(=O)(=O)N2CN(Cc3ccco3)c3nc4ccccc4nc32)cc1` it is 16.4 µM [falling, single point]; for `Cc1c(C)n(CCCN(C)C)c2ncnc(Nc3ccc(F)cc3)c12` it is 3.98 µM [falling, partial curve, poor fit].
